Measurements published in PubChem BioAssay AID504648 (National Center for Advancing Translational Sciences (NCATS), 2011).
Out of some 390,000 compounds screened, about 610 (0.16%) were called active. The shares of active, inactive and inconclusive entries below differ from those in the screen. Calls follow the shape of the dose curve; as a rule, active = well fitted inhibition curve with a large enough effect; inconclusive = small, poorly fitted or top-dose-only effect, or effect the other way, or another doubt; inactive = no such curve, though single readings can be large or run the other way. Potencies beside an inconclusive call are fits to weak or partial responses and may not hold up.

Assay: Nrf2 qHTS screen for inhibitors: counterscreen for cytotoxicity
Settings: A549 ARE-Fluc cells, CellTiter-Fluor viability, 18-24 h; activity change, negative = cytotoxicity: at 46 µM (top of the series)
Procedure, shortened: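 A549 ARE-Fluc cells in 5% FBS OPTI-MEM, 5000 cells/well, rested 2 h then exposed to compounds in concentration-response for 18-24 h at 37 °C. Viability by CellTiter-Fluor fluorescence (Ex 405/Em 525) after 30 min; luciferase luminescence (BugLite, 15 min, RT) read afterwards.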
% is scaled to controls: 0 for no effect and ±100 for the full control effect; potency is read from the fitted curve at half-maximal effect.

Compound	Potency	activity change, negative = cytotoxicity
COc1ccc(-c2ccc(-c3nc4ccc(C)cn4c3NC3CCCCC3)cc2OC)cc1	inconclusive: 20.6 µM [falling, partial curve, poor fit]	–
O=C(Nc1cccc(S(=O)(=O)C(F)F)c1)c1ccc(S(=O)(=O)N2CCCCC2)cc1	inconclusive: 18.4 µM [falling, single point]	–
O=S(=O)(NCC(c1ccco1)N1CCOCC1)c1ccc(F)cc1 (configuration not stated)	inconclusive: 0.259 µM [falling, full curve, poor fit]	–
Cc1ccc(NC(=O)CSc2nc(N)c3c4c(sc3n2)CSC(C)(C)C4)cc1	inconclusive: 25.9 µM [falling, single point]	–
Cc1ccc(C2(O)CN(c3ccccc3)C3=[N+]2CCS3)cc1 (configuration not stated)	inconclusive: 18.4 µM [activator, partial curve, poor fit]	–
CC(=O)NC(NC(=S)Nc1ccc(N=Nc2ccccc2)cc1)C(Cl)(Cl)Cl (configuration not stated)	inconclusive: 20.6 µM [falling, single point]	–
OCCCN=c1cc(-c2ccccc2)oc2ccc(Cl)cc12	inconclusive: 29.1 µM [falling, single point]	–
COc1cc2ncnc(NCc3cccs3)c2cc1OC	–	inactive: -6.71%
Cc1ccccc1CNC(=O)C1CCCN(c2nnc(C)c3c(C)n(-c4ccccc4)nc23)C1 (configuration not stated)	inconclusive: 18.4 µM [falling, single point]	–
CC(=O)Nc1ccc(Nc2c3ccccc3nc3ccccc23)cc1	inconclusive: 11.6 µM [falling, partial curve]	–
CCOC(=O)CCC(NC(=O)c1cncc(O)c1)C(=O)OCC (configuration not stated)	–	inactive: -5.57%
O=C(CN1CC(=O)Oc2ccccc21)OCC(=O)c1ccc(Br)cc1	inconclusive: 23.1 µM [falling, partial curve]	–
CCOc1ccc(C(=O)N2CCC(c3nc(-c4ccc(S(=O)(=O)N5CCCC5)cc4)no3)CC2)cc1	–	inactive: -12%
O=C(CSc1nnc(CN2CCOCC2)n1-c1ccc(Cl)cc1)Nc1ccc2c(c1)OCO2	inconclusive: 20.6 µM [falling, single point]	–
CC(=O)N(c1c(C)n(C)n(-c2ccccc2)c1=O)C1(C(=O)NC2CCCCC2)CCCCC1	inconclusive: 1.16 µM [activator, partial curve, poor fit]	–
Cc1cc(NC(=O)CSc2nc3c(sc4ccccc43)c(=O)n2CCCN2CCOCC2)n[nH]1	inconclusive: 3.26 µM [falling, single point]	–
CC1=C(C(=O)N(C)C)C(c2cccs2)NC(=O)N1 (configuration not stated)	inconclusive: 6.51 µM [falling, partial curve, poor fit]	–
Cc1c(Cc2ccccc2)sc(NC(=O)c2ccco2)c1C(N)=O	inconclusive: 29.1 µM [activator, single point]	–
O=C(/C=C1\C(=O)Nc2ccccc21)/C=C1\C(=O)Nc2ccccc21	–	inactive: -11.1%
CC[C@]12c3[nH]c4ccc(Cl)cc4c3CCN1C(=O)[C@@H](CC(=O)NC/C=C(\C)CCC=C(C)C)C[C@@H]2C(=O)N1CCN(C(=O)C2CC2)CC1	inconclusive: 32.6 µM [falling, single point]	–
CCN1CCN(Cc2ccc(NC(=O)c3cc(NC(=O)c4cc(C)on4)cc(OC)c3)cc2C(F)(F)F)CC1	–	inactive: -1.03%

Reprinted at random: 2 compounds from above
Compound	Potency	activity change, negative = cytotoxicity
Cc1ccc(C2(O)CN(c3ccccc3)C3=[N+]2CCS3)cc1 (configuration not stated)	inconclusive: 18.4 µM [activator, partial curve, poor fit]	–
Cc1cc(NC(=O)CSc2nc3c(sc4ccccc43)c(=O)n2CCCN2CCOCC2)n[nH]1	inconclusive: 3.26 µM [falling, single point]	–

(list continues)

Compound	Potency	activity change, negative = cytotoxicity
O=[N+]([O-])c1ccc(O)c(/C=N/Nc2ccccn2)c1	active: 14.6 µM	–
CC(C)(C)OC(=O)COc1cc(OCC(=O)OC(C)(C)C)c2c(=O)cc(-c3ccccc3)oc2c1	active: 16.4 µM	–
CC(C)(C)[C@H]1COC(=O)[C@@H](NC(=O)OCC2c3ccccc3-c3ccccc32)C/C=C\C[C@@H](CC(=O)N[C@@H](CO)Cc2ccccc2)C(=O)N1	inconclusive: 5.8 µM [falling, partial curve, poor fit]	–
N#Cc1cccc(NC(=O)CNc2cccc(S(=O)(=O)N3CCCC3)c2)c1	inconclusive: 18.4 µM [falling, single point]	–
Cn1cnnc1SCC(=O)Nc1ncc([N+](=O)[O-])s1	inconclusive: 5.8 µM [falling, partial curve]	–
Nc1nc(Nc2ccccc2)nc(NCc2ccccc2)c1[N+](=O)[O-]	inconclusive: 20.6 µM [falling, single point]	–
c1ccc(C2CC3CC(c4ccccc4)N2O3)cc1 (configuration not stated)	inconclusive: 7.31 µM [activator, partial curve, poor fit]	–
Oc1c(C(c2ccccn2)N2CCCCC2)cc(Cl)c2cccnc12 (configuration not stated)	inconclusive: 29.1 µM [falling, partial curve, poor fit]	–
CO[C@@]12[C@@H]3N[C@@H]3CN1C1=C(C(=O)C(N)=C(C)C1=O)[C@@H]2COC(N)=O	inconclusive: 8.2 µM [falling, partial curve]	–
O=S(=O)(c1cccc(C(F)(F)F)c1)N1CCC(Oc2ccc(-n3cnnn3)cc2)CC1	inconclusive: 23.1 µM [falling, partial curve, poor fit]	–
Nc1nnc(Sc2ncccc2[N+](=O)[O-])s1	–	inactive: -1.95%
COC(=O)Nc1c(-c2ccccc2)nc2ccccn12	–	inactive: -0.856%
Cc1ccc(-c2nnn(CC(=O)NC3CCN(Cc4ccccc4)CC3)n2)cc1	inconclusive: 29.1 µM [activator, single point]	–
S=C(NC1CCCCC1)N1CCOCCOCCN(C(=S)NC2CCCCC2)CCOCCOCC1	inconclusive: 29.1 µM [falling, single point]	–
Cc1cc(C)c2oc(-c3cc(NC(=O)Cc4ccccc4)ccc3Cl)nc2c1	–	inactive: 6.5%
CCOC(=O)CCC(=O)NNC(=O)COc1ccc(C(C)C)cc1Br	inconclusive: 10.3 µM [activator, partial curve]	–
Cn1c(NCCN2CCCCC2)cc(=O)n(C)c1=O	inconclusive: 32.6 µM [activator, partial curve, poor fit]	–
O=C(CSc1nc2c([nH]c3ccccc32)c(=O)n1-c1cccc(Cl)c1)NCc1ccccc1	–	inactive: -17.6%
O=C(N/N=C1\CCSC1)c1cc(Cl)ccc1O	inconclusive: 32.6 µM [falling, partial curve, poor fit]	–
CC1CN(CC(O)COC(c2ccc(Cl)cc2)c2ccc(Cl)cc2)CC(C)O1 (configuration not stated)	–	inactive: 0.373%
COCCn1c(SCC(=O)NCC2CCCO2)nc2c([nH]c3ccccc32)c1=O (configuration not stated)	inconclusive: 18.4 µM [falling, single point]	–

Compound	Potency	activity change, negative = cytotoxicity
c1ccc2sc(N3CCCCC3)nc2c1	–	inactive: 0.0173%
COc1ccc2noc3c2c1C(=O)c1ccccc1-3	inconclusive: 5.8 µM [falling, partial curve]	–
Cc1cccc(C)c1NC(=O)CSc1cc(C(=O)c2nccn2C)c2ccccc2n1	–	inactive: -7.06%
Cc1ccc(C2=NOC(=O)/C2=C\C=C\c2ccccc2)cc1	inconclusive: 23.1 µM [falling, single point]	–
CN(C)c1cc[n+](Cc2c(Cl)cccc2Cl)cc1	inconclusive: 9.2 µM [falling, single point]	–
O=C(O)CSc1nc2ccccc2n1C1CCCCC1	inconclusive: 1.16 µM [falling, partial curve, poor fit]	–
C=C(NC(=O)C(=C)NC(=O)c1csc(C2=NC3c4csc(n4)C4NC(=O)c5csc(n5)C(C(C)(O)C(C)O)NC(=O)C5CSC(=N5)/C(=C/C)NC(=O)C(C(C)O)NC(=O)c5csc(n5)C3(CC2)NC(=O)C(C)NC(=O)C(=C)NC(=O)C(=C)NC(=O)C(C(C)C)NC2C=Cc3c(C(C)O)cc(nc3C2O)C(=O)OC4C)n1)C(N)=O (configuration not stated)	inconclusive: 5.8 µM [falling, full curve]	–
O=C(CCCC(=O)N(CC(=O)NC1CCCCC1)c1cccc(F)c1)Nc1ccccn1	–	inactive: -4.46%
COc1ccc(CNc2nc(-c3ccco3)nn2S(=O)(=O)c2ccc3ccccc3c2)cc1OC	–	inactive: -1.78%
O=C(Nc1ccc(O)cc1C(=O)O)c1ccc2c(c1)C(=O)N(Cc1ccco1)C2=O	inconclusive: 6.51 µM [activator, partial curve, poor fit]	–
COc1cccc(NC(=O)Cn2c3ccccc3c3nc4n(c(=O)c32)CCCS4)c1	–	inactive: -5.44%
COc1ccc(OCCn2cc(C(=O)c3ccco3)c3ccccc32)cc1	inconclusive: 29.1 µM [falling, partial curve, poor fit]	–
Cc1ccc(-c2nnc(Cc3ccc(Cl)cc3)o2)cc1	inconclusive: 29.1 µM [falling, single point]	–
Cc1ccc(S(=O)(=O)C(C#N)c2nc3ccccc3nc2N2CCN(C)CC2)cc1C (configuration not stated)	inconclusive: 29.1 µM [falling, partial curve, poor fit]	–
O=C(/C=C/c1cccs1)Nc1ccc(Br)cn1	inconclusive: 2.31 µM [falling, partial curve, poor fit]	–
CC(C)c1ccc(NC(=O)CSC2=Nc3ccccc3C3=NC(CCC(=O)NCc4ccc(F)cc4)C(=O)N23)cc1 (configuration not stated)	inconclusive: 29.1 µM [falling, partial curve, poor fit]	–
Cc1csc2ncnc(N3CCN(C(=O)Nc4ccc(OC(F)(F)F)cc4)CC3)c12	inconclusive: 29.1 µM [falling, single point]	–
O=C1N=C(N2C=CC(=C3C=CNC=C3)C=C2)/C(=C/N=NC(=O)c2ccccc2O)S1	inconclusive: 23.1 µM [falling, partial curve, poor fit]	–
O=[N+]([O-])c1ccc(CN2CCSCC2)cc1	–	inactive: 0.74%
CCC(C)(C)NC(=O)CN(C(=O)CNS(=O)(=O)c1ccc(F)cc1)c1ccc2c(c1)OCCO2	inconclusive: 9.2 µM [falling, partial curve, poor fit]	–
